The list shows a part of the results. Further columns of the screen follow, without active or inactive calls. Most of these compounds were active or inconclusive in the main read-out, so they are no random draw. Words in brackets tell the shape of the fitted curve; partial curves, single points and poor fits give uncertain potencies.
Experiment: qHTS Assay for Modulators of Lamin A Splicing
Settings: HeLa LMNA splicing GFP/RFP minigene ratio, 48 h
In short: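 Read-out is the ratio of GFP to DsRed2 object intensity, acquired by 488 nm laser-scanning cytometry on HeLa lamin A-EGFP minigene reporter cells. Compound incubation 48 hrs at 37 °C in Opti-MEM with 2% FBS; DMSO 0.5% final.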

[1] = measured here: GFP splicing reporter channel
[2] = measured here: RFP viability control channel

Structure (SMILES) | AC50 [1] | AC50 [2]
COc1cc2cc(C(=O)O)[nH]c2c(OC)c1OC | 0.00501 µM [falling, full curve, poor fit] | 0.00355 µM [falling, full curve, poor fit]
COc1ccc(C)cc1-n1nnnc1SCC(=O)Nc1cccnc1Cl | 15.8 µM [rising, single point] | 28.2 µM [rising, single point]
c1ccc2c(c1)oc1c(N3CCN(Cc4ccc5c(c4)OCO5)CC3)ncnc12 |  | 35.5 µM [rising, single point]
COCC(C)n1c(C)cc(C(=O)CSc2nc3ccccc3c(=O)[nH]2)c1C (stereo not given) | 2 µM [rising, partial curve] | 3.98 µM [rising, full curve]
COc1ccc2c(c1)CC/C(=C\C=C\c1ccccc1)C2=O |  | 17.8 µM [rising, partial curve, poor fit]
COC(=O)C1=C(C)N(CC2CC2)C(=O)N[C@H]1c1ccccc1 |  | 0.0251 µM [falling, full curve, poor fit]
Cc1ccc(S(=O)(=O)n2c3ccc(Cl)cc3c3nc(C)sc32)cc1 |  | 35.5 µM [rising, single point]
COc1ccc(C(=O)Cn2c(Br)nc3c2c(=O)n(C)c(=O)n3C)cc1 | 1.41 µM [rising, partial curve] | 22.4 µM [rising, single point]
COc1ccc2c(c1)O[C@H](c1ccc3c(c1)OCO3)[C@@H](O)C2=O |  | 2.82 µM [rising, full curve, poor fit]
CCN(CC)C(=O)CSCc1cnn(-c2ccccc2)c1-n1cccc1 |  | 15.8 µM [rising, partial curve, poor fit]
CC[C@@H]1C=C(C)C[C@H](C)C[C@H](OC)[C@H]2O[C@@](O)(C(=O)C(=O)N3CCCC[C@H]3C(=O)O[C@H](/C(C)=C/[C@@H]3CC[C@@H](O)[C@H](OC)C3)[C@H](C)[C@@H](O)CC1=O)[C@H](C)C[C@@H]2OC |  | 1.41 µM [rising, partial curve, poor fit]
O=C(Cc1noc2ccccc12)Nc1ccc(Cl)cc1 | 15.8 µM [rising, single point] | 10 µM [rising, partial curve]
COc1ccc(-n2c(N)c(C(=O)NCC3CCCO3)c3nc4ccccc4nc32)c(OC)c1 (stereo not given) |  | 3.98 µM [falling, partial curve]
O=[N+]([O-])c1cc(C(F)(F)F)ccc1Sc1ccc2ccccc2n1 |  | 31.6 µM [rising, single point]
O=C(CCN1CCN(Cc2ccccc2)CC1)Nc1ccc(OCc2ccccc2)cc1 |  | 20 µM [rising, single point]
CCN(CC)S(=O)(=O)c1cccc(C(=O)N/N=C/c2ccc([N+](=O)[O-])o2)c1 | 0.501 µM [falling, full curve, poor fit] | 3.16 µM [falling, partial curve, poor fit]
Cc1ccc(S(=O)(=O)/N=C2/C=C(Sc3ncn[nH]3)C(=O)c3ccccc32)c(C)c1 | 35.5 µM [falling, single point] | 35.5 µM [falling, single point]
Cc1cc(-c2c(C)[nH]n(-c3ccc(Cl)cc3)c2=O)n(-c2ccccc2)n1 |  | 0.141 µM [rising, full curve, poor fit]
Cn1c(=O)c(CCc2ccccc2)nc2cnc(OCc3ccccc3)nc21 | 2.51 µM [falling, partial curve, poor fit] | 7.08 µM [falling, partial curve, poor fit]
COc1cc(-c2nc(CN(C)Cc3nnc(C)o3)c(C)o2)ccc1F | 4.47 µM [falling, full curve, poor fit] | 
CN1CCN(c2nc(-c3ccncc3)nc3ccccc23)CC1 |  | 17.8 µM [rising, single point]
Cc1onc(-c2ccccc2)c1C(=O)N1CCCSC1=Nc1ccccc1 |  | 15.8 µM [rising, single point]
CCOc1ccccc1Nc1nnc(SC(C)C(=O)Nc2nc(-c3ccccc3)cs2)s1 (stereo not given) |  | 11.2 µM [rising, partial curve]
Cc1ccc(NC(=O)C(=O)c2c(-c3ccccc3)cc3ccccn23)cc1S(=O)(=O)N1CCOCC1 |  | 11.2 µM [rising, single point]
O=C(CN(CC1CCCO1)S(=O)(=O)c1ccc(S(=O)(=O)NCC2CCCO2)cc1)Nc1ccccc1 (stereo not given) | 11.2 µM [rising, single point] | 
Cc1cccc(OCC(=O)N/N=C\C=C\c2ccc3c(c2)OCO3)c1C |  | 20 µM [falling, partial curve, poor fit]
CC(=NCc1ccc2c(c1)OCO2)C1=C(O)c2ccccc2C1=O |  | 35.5 µM [rising, single point]

Entries of single compounds, looked up by structure.
CC[C@@H]1C=C(C)C[C@H](C)C[C@H](OC)[C@H]2O[C@@](O)(C(=O)C(=O)N3CCCC[C@H]3C(=O)O[C@H](/C(C)=C/[C@@H]3CC[C@@H](O)[C@H](OC)C3)[C@H](C)[C@@H](O)CC1=O)[C@H](C)C[C@@H]2OC as listed: AC50 [2]: 1.41 µM [rising, partial curve, poor fit]
O=C(CCN1CCN(Cc2ccccc2)CC1)Nc1ccc(OCc2ccccc2)cc1 as listed: AC50 [2]: 20 µM [rising, single point]

Next part

Structure (SMILES) | AC50 [1] | AC50 [2]
O=C(COc1ccc(Br)cc1Cl)NC(=S)N1CCc2ccccc21 |  | 35.5 µM [rising, single point]
Brc1ccc(/C=N/Nc2ccccc2)cc1 | 15.8 µM [rising, partial curve, poor fit] | 15.8 µM [rising, partial curve, poor fit]
CCCc1cc(=O)[nH]c(SCc2cc(=O)oc3cc(C)c(C(C)C)cc23)n1 | 15.8 µM [rising, partial curve] | 22.4 µM [rising, partial curve]
O=C(CNC(=O)c1ccccc1)OCc1cc(=O)n2nc(C3CC3)sc2n1 | 0.00501 µM [falling, full curve, poor fit] | 0.00316 µM [falling, full curve, poor fit]
COc1ccccc1NC(=O)c1cc2n(n1)C(C(F)(F)F)CC(c1ccc3c(c1)OCO3)N2 (stereo not given) |  | 35.5 µM [rising, single point]
Cc1cc(/C=N/NC(=O)c2c(Br)cnn2C)c(C)n1-c1cccc(Br)c1 | 35.5 µM [rising, single point] | 35.5 µM [rising, single point]
O=C(NCCN1CCOCC1)c1cc(-c2cccs2)on1 | 35.5 µM [falling, single point] | 25.1 µM [falling, single point]
CCCCN1C(=O)C(=Nc2cccc3cnccc23)c2ccccc21 | 2 µM [rising, partial curve, poor fit] | 
O=C(N/N=C/c1cn(-c2cccs2)nc1-c1ccccc1)c1ccc(O)cc1 |  | 35.5 µM [rising, single point]
CCC1CCCCN1C(=O)CCS(=O)(=O)c1cc2c(cc1C)NC(=O)CO2 (stereo not given) | 7.94 µM [falling, partial curve] | 
COc1ccccc1CNC(=O)CC1Sc2ccccc2NC1=O (stereo not given) | 20 µM [falling, partial curve, poor fit] | 12.6 µM [falling, partial curve, poor fit]
C=C(C)c1cccc(C(C)(C)NC(=O)N2CCC(C(N)=O)CC2)c1 | 0.126 µM [rising, full curve] | 
Cc1cccc(/C=N/NC(=O)NC2CCCCC2)c1 |  | 12.6 µM [rising, single point]
COc1ccc2cc(CCN3C(=O)c4ccccc4C3=O)c(=O)[nH]c2c1 |  | 4.47 µM [rising, single point]
Cc1ccc(NC(=O)c2c([N+](=O)[O-])c(C(C)(C)C)nn2C)c(C)c1 | 11.2 µM [rising, partial curve] | 35.5 µM [rising, single point]
COc1ccc2nc(SCC(=O)Nc3ccccc3OC)[nH]c2c1 |  | 22.4 µM [falling, single point]
COc1ccc(Br)cc1/C=C/C(=O)c1ccc(NC(C)=O)cc1 | 11.2 µM [falling, partial curve, poor fit] | 35.5 µM [falling, single point]
NC(=S)N/N=C/c1cccc(O)c1O | 3.55 µM [falling, full curve, poor fit] | 5.62 µM [falling, single point]
Cc1cc(C)cc(-n2c(SCC(=O)N3CCCCCC3)nc3c([nH]c4ccccc43)c2=O)c1 | 0.0562 µM [rising, full curve, poor fit] | 0.0631 µM [rising, full curve, poor fit]
Cc1ccccc1Nc1cc(=O)oc2ccccc12 | 11.2 µM [rising, partial curve] | 14.1 µM [rising, single point]
COC(=O)C1=C(C)N(c2cccc(OC)c2)C(=O)/C1=C\c1ccco1 |  | 35.5 µM [rising, single point]
Cc1ccc(C(=O)NCc2ccccc2)cc1NC(=O)c1nsc2ccccc12 | 35.5 µM [rising, single point] | 31.6 µM [rising, single point]
O=C(CCCSc1nc2ccccc2[nH]1)N1CCN(c2ccc([N+](=O)[O-])cc2)CC1 |  | 15.8 µM [rising, single point]
Cc1oc2cc(O)ccc2c(=O)c1Oc1ccccc1Br | 25.1 µM [falling, partial curve] | 
CCOc1nc(NCCO)nc(Nc2ccc([N+](=O)[O-])cc2)n1 | 0.355 µM [falling, full curve] | 0.631 µM [falling, full curve, poor fit]
Cc1c(NC(=O)CN2C(=O)c3ccccc3C2=O)c(=O)n(-c2ccccc2)n1C | 0.708 µM [falling, full curve] | 0.447 µM [falling, partial curve]

— PubChem BioAssay AID1487 (National Center for Advancing Translational Sciences (NCATS), 2009)
